The values that follow come from the supplement of paper PMC10849652.

Chains of the proteins cited; added tags and fusions are not shown. Lines headed by an entry give the natural chain unless they say otherwise; changes in a name come on top.
UniProt Q14244: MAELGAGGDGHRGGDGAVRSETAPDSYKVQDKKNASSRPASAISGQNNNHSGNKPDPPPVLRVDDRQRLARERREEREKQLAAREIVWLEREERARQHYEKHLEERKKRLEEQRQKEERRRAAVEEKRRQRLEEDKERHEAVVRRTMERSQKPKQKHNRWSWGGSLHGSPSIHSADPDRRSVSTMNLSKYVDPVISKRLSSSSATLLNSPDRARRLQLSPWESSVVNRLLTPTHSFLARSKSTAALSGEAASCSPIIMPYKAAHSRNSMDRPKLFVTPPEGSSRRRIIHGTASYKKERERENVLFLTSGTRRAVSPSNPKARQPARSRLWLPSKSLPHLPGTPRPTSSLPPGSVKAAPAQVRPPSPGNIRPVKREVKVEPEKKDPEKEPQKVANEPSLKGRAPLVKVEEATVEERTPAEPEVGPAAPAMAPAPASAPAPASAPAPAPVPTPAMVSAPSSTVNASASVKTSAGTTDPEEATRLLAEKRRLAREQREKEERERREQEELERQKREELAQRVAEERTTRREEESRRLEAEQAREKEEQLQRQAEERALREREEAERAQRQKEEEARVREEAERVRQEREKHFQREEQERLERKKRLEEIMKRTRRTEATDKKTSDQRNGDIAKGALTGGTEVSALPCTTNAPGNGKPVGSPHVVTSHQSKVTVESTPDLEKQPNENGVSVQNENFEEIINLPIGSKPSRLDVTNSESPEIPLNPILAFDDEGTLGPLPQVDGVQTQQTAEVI
UniProt O14733: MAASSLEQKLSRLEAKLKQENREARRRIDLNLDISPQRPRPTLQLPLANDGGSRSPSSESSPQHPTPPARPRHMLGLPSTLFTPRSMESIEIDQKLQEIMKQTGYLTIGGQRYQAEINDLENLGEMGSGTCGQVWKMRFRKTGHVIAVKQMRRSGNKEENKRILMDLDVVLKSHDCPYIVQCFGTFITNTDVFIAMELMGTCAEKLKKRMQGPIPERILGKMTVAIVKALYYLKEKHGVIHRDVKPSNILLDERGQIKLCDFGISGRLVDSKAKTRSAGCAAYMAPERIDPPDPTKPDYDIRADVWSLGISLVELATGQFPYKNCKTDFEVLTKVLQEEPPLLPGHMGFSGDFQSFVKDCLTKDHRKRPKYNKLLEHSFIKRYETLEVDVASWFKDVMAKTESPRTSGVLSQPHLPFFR
UniProt P49006: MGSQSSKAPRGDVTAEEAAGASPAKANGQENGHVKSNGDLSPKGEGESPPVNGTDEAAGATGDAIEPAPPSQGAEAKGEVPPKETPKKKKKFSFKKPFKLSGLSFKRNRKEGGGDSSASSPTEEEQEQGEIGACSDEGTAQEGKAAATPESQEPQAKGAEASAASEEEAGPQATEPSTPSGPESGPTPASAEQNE
UniProt Q9Y4K4: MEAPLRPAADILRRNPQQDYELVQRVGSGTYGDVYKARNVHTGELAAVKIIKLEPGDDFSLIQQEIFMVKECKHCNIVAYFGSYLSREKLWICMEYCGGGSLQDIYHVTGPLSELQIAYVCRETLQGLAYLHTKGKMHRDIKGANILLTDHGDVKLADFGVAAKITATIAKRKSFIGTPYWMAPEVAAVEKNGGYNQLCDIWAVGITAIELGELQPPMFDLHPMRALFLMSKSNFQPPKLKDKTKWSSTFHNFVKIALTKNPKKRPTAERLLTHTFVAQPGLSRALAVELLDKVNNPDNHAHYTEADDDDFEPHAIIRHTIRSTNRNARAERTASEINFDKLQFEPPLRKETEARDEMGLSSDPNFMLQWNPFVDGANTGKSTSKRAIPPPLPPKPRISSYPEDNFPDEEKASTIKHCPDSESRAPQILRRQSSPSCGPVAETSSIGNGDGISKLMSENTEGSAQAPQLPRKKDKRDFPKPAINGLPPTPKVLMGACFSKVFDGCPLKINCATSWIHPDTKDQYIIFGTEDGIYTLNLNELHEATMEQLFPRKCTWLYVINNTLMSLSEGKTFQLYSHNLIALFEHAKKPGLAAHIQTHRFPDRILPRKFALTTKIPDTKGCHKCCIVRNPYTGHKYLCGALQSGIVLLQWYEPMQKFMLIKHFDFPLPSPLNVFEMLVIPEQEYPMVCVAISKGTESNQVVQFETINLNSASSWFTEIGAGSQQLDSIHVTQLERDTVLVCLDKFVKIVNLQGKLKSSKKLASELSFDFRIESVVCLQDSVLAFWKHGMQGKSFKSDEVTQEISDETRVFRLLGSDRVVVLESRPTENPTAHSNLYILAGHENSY
UniProt P12980: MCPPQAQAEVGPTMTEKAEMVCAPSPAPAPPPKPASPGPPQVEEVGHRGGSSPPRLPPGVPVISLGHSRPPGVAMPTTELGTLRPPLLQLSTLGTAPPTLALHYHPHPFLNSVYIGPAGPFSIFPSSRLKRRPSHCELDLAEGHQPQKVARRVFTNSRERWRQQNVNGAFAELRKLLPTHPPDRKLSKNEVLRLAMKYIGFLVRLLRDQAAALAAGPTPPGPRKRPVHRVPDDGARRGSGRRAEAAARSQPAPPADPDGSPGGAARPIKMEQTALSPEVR
UniProt P51884: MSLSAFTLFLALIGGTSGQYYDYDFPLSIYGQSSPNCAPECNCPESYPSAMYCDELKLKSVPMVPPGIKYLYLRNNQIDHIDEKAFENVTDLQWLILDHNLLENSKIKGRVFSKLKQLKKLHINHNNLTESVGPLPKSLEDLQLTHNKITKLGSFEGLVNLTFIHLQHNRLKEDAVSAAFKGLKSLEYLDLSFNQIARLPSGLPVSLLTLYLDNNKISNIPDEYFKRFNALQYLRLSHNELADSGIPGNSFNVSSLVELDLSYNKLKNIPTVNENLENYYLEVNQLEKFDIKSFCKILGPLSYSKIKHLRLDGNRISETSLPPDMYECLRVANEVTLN
UniProt Q32MZ4: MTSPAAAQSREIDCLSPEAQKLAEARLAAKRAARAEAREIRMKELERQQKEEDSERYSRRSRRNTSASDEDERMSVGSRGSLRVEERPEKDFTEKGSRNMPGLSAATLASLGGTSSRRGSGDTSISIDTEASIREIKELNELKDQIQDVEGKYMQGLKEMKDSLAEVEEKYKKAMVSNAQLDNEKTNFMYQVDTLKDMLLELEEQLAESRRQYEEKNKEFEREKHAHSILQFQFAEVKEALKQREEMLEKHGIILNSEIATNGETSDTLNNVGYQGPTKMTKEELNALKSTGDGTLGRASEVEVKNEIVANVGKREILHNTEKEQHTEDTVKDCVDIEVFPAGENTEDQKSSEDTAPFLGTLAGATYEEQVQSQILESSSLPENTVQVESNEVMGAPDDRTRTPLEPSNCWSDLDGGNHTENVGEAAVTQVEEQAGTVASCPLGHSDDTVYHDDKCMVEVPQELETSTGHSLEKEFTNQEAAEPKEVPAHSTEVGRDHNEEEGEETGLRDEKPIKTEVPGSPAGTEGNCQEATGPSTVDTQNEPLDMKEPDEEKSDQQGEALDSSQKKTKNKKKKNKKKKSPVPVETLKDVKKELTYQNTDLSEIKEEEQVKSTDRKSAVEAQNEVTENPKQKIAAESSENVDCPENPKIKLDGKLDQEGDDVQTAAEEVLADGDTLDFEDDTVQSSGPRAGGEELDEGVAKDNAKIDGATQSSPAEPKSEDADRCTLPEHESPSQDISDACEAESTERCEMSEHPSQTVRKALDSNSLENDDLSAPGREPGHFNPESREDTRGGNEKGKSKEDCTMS
UniProt O15479: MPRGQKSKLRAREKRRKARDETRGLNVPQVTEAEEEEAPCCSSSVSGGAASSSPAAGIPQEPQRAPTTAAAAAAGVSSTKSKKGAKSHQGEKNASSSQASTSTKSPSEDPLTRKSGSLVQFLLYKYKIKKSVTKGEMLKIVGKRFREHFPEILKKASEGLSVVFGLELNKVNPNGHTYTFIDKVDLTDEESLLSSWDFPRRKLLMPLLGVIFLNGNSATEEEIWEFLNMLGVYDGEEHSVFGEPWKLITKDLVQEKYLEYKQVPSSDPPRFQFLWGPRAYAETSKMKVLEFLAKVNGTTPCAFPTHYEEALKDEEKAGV
UniProt Q8WVR3: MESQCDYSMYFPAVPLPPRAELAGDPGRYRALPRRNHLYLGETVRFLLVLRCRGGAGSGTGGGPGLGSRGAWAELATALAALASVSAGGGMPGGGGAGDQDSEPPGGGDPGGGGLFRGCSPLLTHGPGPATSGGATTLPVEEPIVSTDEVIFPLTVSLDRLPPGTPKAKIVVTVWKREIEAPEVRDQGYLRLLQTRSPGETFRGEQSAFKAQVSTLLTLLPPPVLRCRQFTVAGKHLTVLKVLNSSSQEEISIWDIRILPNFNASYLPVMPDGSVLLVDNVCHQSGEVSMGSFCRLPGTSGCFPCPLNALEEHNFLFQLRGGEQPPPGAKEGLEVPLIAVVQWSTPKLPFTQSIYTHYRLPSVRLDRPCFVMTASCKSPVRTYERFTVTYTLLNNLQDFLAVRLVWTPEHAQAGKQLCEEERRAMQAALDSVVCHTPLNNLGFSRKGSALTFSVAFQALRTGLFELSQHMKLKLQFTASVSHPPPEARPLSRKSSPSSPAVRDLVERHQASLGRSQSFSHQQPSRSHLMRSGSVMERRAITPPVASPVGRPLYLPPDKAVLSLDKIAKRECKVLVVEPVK
UniProt Q9Y4Z0: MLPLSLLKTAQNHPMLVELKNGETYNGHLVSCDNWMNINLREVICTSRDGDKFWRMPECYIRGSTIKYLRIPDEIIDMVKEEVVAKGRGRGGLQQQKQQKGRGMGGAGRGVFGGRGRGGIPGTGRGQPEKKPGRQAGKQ
UniProt Q96QZ7: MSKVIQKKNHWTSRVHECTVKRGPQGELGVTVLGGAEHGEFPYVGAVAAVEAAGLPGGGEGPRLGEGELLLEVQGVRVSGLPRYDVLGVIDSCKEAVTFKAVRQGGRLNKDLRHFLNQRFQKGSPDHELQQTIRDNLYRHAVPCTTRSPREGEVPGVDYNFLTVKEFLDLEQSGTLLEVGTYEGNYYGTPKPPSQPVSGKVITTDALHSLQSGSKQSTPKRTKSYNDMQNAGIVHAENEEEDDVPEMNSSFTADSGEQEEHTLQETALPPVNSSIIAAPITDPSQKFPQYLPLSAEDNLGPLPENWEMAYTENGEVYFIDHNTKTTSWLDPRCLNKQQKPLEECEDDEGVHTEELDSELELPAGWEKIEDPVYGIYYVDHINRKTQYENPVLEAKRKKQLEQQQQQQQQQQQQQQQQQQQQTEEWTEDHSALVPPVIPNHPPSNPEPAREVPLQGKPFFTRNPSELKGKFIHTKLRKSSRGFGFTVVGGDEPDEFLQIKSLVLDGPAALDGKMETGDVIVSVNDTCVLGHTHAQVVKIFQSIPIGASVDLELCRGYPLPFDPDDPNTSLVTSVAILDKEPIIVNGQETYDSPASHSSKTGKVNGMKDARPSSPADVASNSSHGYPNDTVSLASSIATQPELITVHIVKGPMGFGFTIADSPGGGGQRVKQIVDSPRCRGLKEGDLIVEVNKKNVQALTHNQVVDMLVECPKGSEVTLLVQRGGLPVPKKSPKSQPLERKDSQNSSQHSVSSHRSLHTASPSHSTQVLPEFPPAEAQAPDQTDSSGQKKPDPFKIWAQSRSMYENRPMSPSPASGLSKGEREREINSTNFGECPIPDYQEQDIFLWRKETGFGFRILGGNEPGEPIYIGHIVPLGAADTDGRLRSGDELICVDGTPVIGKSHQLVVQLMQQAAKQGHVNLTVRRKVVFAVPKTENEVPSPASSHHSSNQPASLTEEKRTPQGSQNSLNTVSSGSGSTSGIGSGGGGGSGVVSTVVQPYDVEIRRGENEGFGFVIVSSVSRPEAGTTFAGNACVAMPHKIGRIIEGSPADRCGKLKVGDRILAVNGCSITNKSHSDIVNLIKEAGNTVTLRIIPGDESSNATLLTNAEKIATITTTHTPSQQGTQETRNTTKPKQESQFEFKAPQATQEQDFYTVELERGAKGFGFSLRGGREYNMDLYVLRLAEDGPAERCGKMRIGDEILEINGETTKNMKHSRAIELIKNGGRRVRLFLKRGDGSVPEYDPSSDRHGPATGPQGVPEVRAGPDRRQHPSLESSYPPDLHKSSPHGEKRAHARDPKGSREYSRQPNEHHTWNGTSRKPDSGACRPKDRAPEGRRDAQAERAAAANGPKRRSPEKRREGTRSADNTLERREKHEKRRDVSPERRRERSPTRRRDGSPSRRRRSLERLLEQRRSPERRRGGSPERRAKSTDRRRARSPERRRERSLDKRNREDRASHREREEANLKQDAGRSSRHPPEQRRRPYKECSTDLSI
UniProt Q9UI95, whole entry, looked up: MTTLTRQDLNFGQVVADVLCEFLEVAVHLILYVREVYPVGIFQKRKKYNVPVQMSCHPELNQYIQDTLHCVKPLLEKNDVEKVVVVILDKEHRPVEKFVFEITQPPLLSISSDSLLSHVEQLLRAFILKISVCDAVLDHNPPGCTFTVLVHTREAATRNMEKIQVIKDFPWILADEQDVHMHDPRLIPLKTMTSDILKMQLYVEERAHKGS

Some of the results follow.

Common to all, as to test: log2 fold change, soluble protein after heating vs DMSO (PISA); higher = thermal stabilisation; K562 cells, 10 uM, 30 min; active = over 0.2 and 3.5 SD of the protein, either way, in both replicates (recomputed)
Compound in one experiment: C#Cc1cccc(Nc2ncnc3cc(OCCOC)c(OCCOC)cc23)c1 [erlotinib]
The essentials:
(§1)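 K562 cells (2×10^6 cells/mL) were treated with 10 μM compound for 30 min, and aliquots were heated for 3 min over 48°C-58°C. Pooled aliquots were extracted in PBS with 0.5% NP-40 at 4°C, and the supernatant after 21,000xg for 90 min was measured by TMTpro 16plex LC-MS/MS with channel sums equalised. Reported thermal stability, relative to control samples and from duplicates, is a log2 fold change.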

Compound in experiment [1]: C/C(=N\NC(=O)C1=CC(=CC=C1)S(=O)(=O)N2CCOCC2)/C3=C(C=CC(=C3)Cl)O
The essentials:
as §1

Compound in experiment [2]: C1=CC(=C(C=C1Cl)C2=NC3=NC=CN=C3C(=N2)NC4=CC=NC=C4)F
The essentials: as §1

Compound in experiment [3]: C1=CC(=CC=C1C2=NC3=C(N2)C=C(C=C3)C(=O)N)OC4=CC=C(C=C4)Cl
The essentials: as §1

Compound in experiment [4]: C1=CC2=C(C=CC(=C2)/C=C\3/C(=O)NC(=NCC4=CC=CS4)S3)N=C1
The essentials: as §1

Compound in experiment [5]: C1=CC2=NC=CN=C2C=C1/C=C/3\C(=O)NC(=O)S3
The essentials:
as §1

Compound in experiment [6]: C1=CC=C(C=C1)C2=NC(=C(N2)C3=CC=NC=C3)C4=CC(=C(C=C4)Cl)O
The essentials:
as §1

Compound in experiment [7]: C1=CC=C2C(=C1)C3=NNC4=CC=CC(=C43)C2=O
The essentials:
as §1

Compound in experiment [8]: C1CCN(C1)C(=O)NC2=CC=CC(=C2)NC3=NC=C(C(=N3)NCCC4=CN=CN4)Br
The essentials:
as §1

Compound in experiment [9]: C1CN(CCC1(CC2=CC=C(C=C2)Cl)N)C3=NC=NC4=C3C=CN4
The essentials:
as §1

As for MAP7 isoform 7 (UniProt Q14244), the log2 fold change was inactive: 0.122 in the experiment with erlotinib; inactive: -0.125 in [1]; inactive: -0.568 in experiment [2]; inactive: -0.059 in experiment [3]; inactive: -0.101 in experiment [4]; inactive: 0.057 in experiment [5]. Further, the log2 fold change in experiment [6] was inactive: -0.102; in experiment [7] it was inactive: -0.004; in [8] it was inactive: 0.034; in experiment [9], inactive: -0.233.

Consider MAP2K7 isoform 4 (UniProt O14733), for which the log2 fold change with erlotinib is inactive: 0.021; in experiment [1], inactive: -0.005; in [2] it was inactive: 0.061; in experiment [3] it was inactive: 0.017; in experiment [4], inactive: 0.01; in experiment [5] it was inactive: 0.017. Also, the log2 fold change in [6] was inactive: -0.009; in experiment [7], inactive: -0.032; in experiment [8], inactive: -0.012; in experiment [9], inactive: 0.023.

Consider LRRC8A (UniProt Q8IWT6), for which the log2 fold change was inactive: 0.034 with erlotinib; inactive: -0.123 in experiment [1]; inactive: -0.172 in experiment [2]; inactive: 0.037 in [3]; inactive: 0.048 in [4]; inactive: 0.036 in experiment [5]. The log2 fold change in [6] is inactive: 0.004; in experiment [7], inactive: 0.004; in [8], inactive: -0.068; in experiment [9], inactive: -0.057.

As to LRSAM1 (UniProt Q6UWE0), the log2 fold change with erlotinib is inactive: -0.011; in experiment [1] it was inactive: 0.034; in experiment [2] it was inactive: 0.053; in experiment [3], inactive: 0.026; in experiment [4], inactive: -0.029; in experiment [5], inactive: 0.083. The log2 fold change in experiment [6] was inactive: -0.001; in experiment [7] it was inactive: 0.048; in experiment [8], inactive: -0.077; in [9], inactive: -0.031.

As for MARCKSL1 (UniProt P49006), the log2 fold change with erlotinib is inactive: -0.001; in experiment [1], inactive: 0.072; in experiment [2] it was inactive: -0.047; in experiment [3], inactive: -0.02; in [4], inactive: -0.031; in experiment [5], inactive: -0.039. Moreover, the log2 fold change in [6] was inactive: -0.015; in experiment [7], inactive: -0.063; in [8], inactive: -0.005; in [9], inactive: 0.039.

For the target MAP4K5 (UniProt Q9Y4K4), the log2 fold change is inactive: -0.001 with erlotinib; inactive: 0.057 in experiment [1]; inactive: 0.05 in experiment [2]; inactive: 0.051 in experiment [3]; inactive: 0.143 in experiment [4]; inactive: -0.025 in [5]. Besides, the log2 fold change in experiment [6] is inactive: -0.039; in experiment [8] it was inactive: -0.083; in [9], inactive: 0.152.

Regarding LYL1 (UniProt P12980), the log2 fold change with erlotinib is inactive: -0.043; in experiment [1], inactive: -0.058; in experiment [2], inactive: 0.242; in [3], inactive: 0.158; in experiment [4] it was inactive: 0.237; in [5] it was inactive: 0.042. The log2 fold change in experiment [6] was inactive: 0.158; in experiment [7], inactive: 0.002; in experiment [8], inactive: -0.144; in experiment [9], inactive: -0.132.

Regarding LUM (UniProt P51884), the log2 fold change in the experiment with erlotinib was inactive: -0.147; in experiment [1] it was inactive: -0.043; in experiment [2], inactive: 0.095; in [3] it was inactive: 0.039; in experiment [4], inactive: 0.063; in [6], inactive: -0.057. Further, the figures for the log2 fold change in experiment [7], in experiment [8] and in experiment [9] were inactive: -0.068, inactive: 0.185 and inactive: 0.307, respectively.

With LRRFIP1 isoform 4 (UniProt Q32MZ4), the log2 fold change is inactive: -0.122 with erlotinib; active: -1.2 in experiment [1]; inactive: -0.121 in experiment [2]; inactive: -0.006 in experiment [3]; inactive: -0.045 in experiment [4]; inactive: 0.072 in experiment [7].

In the case of MARCHF6 (UniProt O60337), the log2 fold change with erlotinib was inactive: -0.029; in experiment [1] it was inactive: 0.004; in experiment [2], inactive: 0.067; in experiment [3], inactive: 0.044; in experiment [4], inactive: 0.104; in [5], inactive: 0.033. Besides, the log2 fold change was inactive: -0.068 in experiment [6], inactive: -0.116 in experiment [7], inactive: -0.033 in experiment [8] and inactive: 0.018 in [9].

In the case of MAGEB2 (UniProt O15479), the log2 fold change with erlotinib is inactive: -0.125; in experiment [1], inactive: -0.25; in experiment [2], inactive: -0.182; in experiment [3], inactive: 0.078; in experiment [4], inactive: -0.052; in experiment [5] it was inactive: -0.041. The log2 fold change in experiment [6] is inactive: -0.074; in [7], inactive: -0.116; in experiment [8], inactive: 0.191; in experiment [9], inactive: 0.205.

As to MAP11 (UniProt Q8WVR3), the log2 fold change was inactive: 0.074 in the experiment with erlotinib, inactive: -0.098 in experiment [2], inactive: 0.06 in experiment [3] and inactive: 0.049 in experiment [5].

In the case of LSM4 (UniProt Q9Y4Z0), the log2 fold change with erlotinib was inactive: -0.038; in [1], inactive: -0.006; in experiment [2], inactive: 0.044; in [3], inactive: 0.019; in experiment [4], inactive: -0.026; in experiment [5] it was inactive: 0.053. The log2 fold change in experiment [6] is inactive: 0.007; in experiment [7], inactive: -0.012; in experiment [8], inactive: 0.019; in experiment [9], inactive: 0.068.

As for MAGI1 (UniProt Q96QZ7), the log2 fold change with erlotinib is inactive: -0.022; in experiment [1] it was inactive: 0; in [2] it was inactive: -0.083; in experiment [3], inactive: 0.049; in [4], inactive: -0.008; in [5] it was inactive: 0.018. For the same target, the log2 fold change in experiment [6] was inactive: -0.015; in experiment [7], inactive: -0.016; in experiment [8] it was inactive: 0.012; in [9], inactive: -0.047.

For MAD2L2 (UniProt Q9UI95), the log2 fold change was inactive: 0.09 in the experiment with erlotinib; inactive: 0.125 in experiment [1]; inactive: -0.041 in [2]; inactive: 0.027 in experiment [3]; inactive: 0.085 in [4]; inactive: -0.078 in experiment [7].
